# Laboratory results reported in US20060153931A1, “Prevention of flap necrosis in plastic surgery” (priority 2001, published 2006).
# System: skin flaps based on the epigastric artery and vein
# Assay: Rat epigastric skin flap model, ET-1 induced pedicle vasoconstriction (Background Example 1)
# Type: in vivo, rats
# Settings: for flap blood flow: laser Doppler
# [1] = 30 min after application, 2% lidocaine or 10^−4M ENO, 15 min after ET-1, mean±SEM
smiles,measurement,setting,value
CCN(CC)CC(=O)Nc1c(C)cccc1C [lidocaine],overall effect on arterial dilation and blood flow (in words),2% lidocaine vs 10^−4M ENO,faster effect
same,arterial diameter,"1 min after application (lidocaine: within 1 min), 2% lidocaine or 10^−4M ENO, 15 min after ET-1, mean±SEM",101±6 % of baseline
same,flap blood flow,"2 min after application, 2% lidocaine or 10^−4M ENO, 15 min after ET-1, mean±SEM",87±13 % of baseline
same,flap blood flow,[1],55±7 % of baseline
same,arterial diameter,[1],82±6 % of baseline
same,vein diameter,[1],68±7 % of baseline
